Literature values in US20060177385A1, “Compositions for treating dental caries caused by streptococcus mutans infection” (priority 2002, published 2006).
At least one structure is not confirmed: it was looked up by name or label, or the drawing left a doubt.

Assays:
[1] = single rinse, mouthrinse, 10 subjects; cited from earlier work
[2] = mouthwashes and toothpastes; cited from earlier work

SMILES | return to pre-rinse levels after [1] | effectiveness compared with chlorhexidine [2]
CCCCCCCCCCCCCCCC[n+]1ccccc1 [cetyl pyridinium chloride] | 3 h | 
C[n+]1cc2c3c(ccc2c2ccc4cc5c(cc4c21)OCO5)OCO3 [Sanguinarine] |  | less effective than chlorhexidine (Corsodyl)
